Reference: paper PMC5611384
No constants are given. Whether binding was seen depends on the method and setting. In cells and extracts the contact can be indirect. Some binding calls cover weakened binding; strength is not graded here.

Sequences of proteins named here, by UniProt entry; tags and fusion partners are left off.
UniProt O35800: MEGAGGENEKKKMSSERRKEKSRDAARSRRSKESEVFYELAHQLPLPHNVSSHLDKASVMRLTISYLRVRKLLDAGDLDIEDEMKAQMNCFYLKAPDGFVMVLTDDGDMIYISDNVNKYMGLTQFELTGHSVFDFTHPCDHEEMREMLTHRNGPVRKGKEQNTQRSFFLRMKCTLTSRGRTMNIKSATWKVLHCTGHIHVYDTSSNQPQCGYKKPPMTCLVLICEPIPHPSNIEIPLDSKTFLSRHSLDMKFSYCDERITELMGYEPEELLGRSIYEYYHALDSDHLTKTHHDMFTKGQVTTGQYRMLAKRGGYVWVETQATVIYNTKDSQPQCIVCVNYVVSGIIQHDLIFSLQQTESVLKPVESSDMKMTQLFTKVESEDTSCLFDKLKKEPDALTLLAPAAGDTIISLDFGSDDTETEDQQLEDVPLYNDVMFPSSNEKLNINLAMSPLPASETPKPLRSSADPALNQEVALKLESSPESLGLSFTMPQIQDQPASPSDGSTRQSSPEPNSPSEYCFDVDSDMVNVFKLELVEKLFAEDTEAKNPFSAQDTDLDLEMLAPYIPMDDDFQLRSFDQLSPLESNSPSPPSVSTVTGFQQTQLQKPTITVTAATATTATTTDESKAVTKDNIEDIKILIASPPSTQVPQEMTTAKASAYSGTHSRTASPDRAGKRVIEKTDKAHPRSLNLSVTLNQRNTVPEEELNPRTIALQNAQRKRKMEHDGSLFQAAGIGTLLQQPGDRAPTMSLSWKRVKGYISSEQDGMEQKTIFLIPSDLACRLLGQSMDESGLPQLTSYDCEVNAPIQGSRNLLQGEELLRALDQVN

Molecular target: T1, ubiquitin-specific protease 8 (rat (endogenous in PC12)) (UniProt D3ZN39)
T1 sequence: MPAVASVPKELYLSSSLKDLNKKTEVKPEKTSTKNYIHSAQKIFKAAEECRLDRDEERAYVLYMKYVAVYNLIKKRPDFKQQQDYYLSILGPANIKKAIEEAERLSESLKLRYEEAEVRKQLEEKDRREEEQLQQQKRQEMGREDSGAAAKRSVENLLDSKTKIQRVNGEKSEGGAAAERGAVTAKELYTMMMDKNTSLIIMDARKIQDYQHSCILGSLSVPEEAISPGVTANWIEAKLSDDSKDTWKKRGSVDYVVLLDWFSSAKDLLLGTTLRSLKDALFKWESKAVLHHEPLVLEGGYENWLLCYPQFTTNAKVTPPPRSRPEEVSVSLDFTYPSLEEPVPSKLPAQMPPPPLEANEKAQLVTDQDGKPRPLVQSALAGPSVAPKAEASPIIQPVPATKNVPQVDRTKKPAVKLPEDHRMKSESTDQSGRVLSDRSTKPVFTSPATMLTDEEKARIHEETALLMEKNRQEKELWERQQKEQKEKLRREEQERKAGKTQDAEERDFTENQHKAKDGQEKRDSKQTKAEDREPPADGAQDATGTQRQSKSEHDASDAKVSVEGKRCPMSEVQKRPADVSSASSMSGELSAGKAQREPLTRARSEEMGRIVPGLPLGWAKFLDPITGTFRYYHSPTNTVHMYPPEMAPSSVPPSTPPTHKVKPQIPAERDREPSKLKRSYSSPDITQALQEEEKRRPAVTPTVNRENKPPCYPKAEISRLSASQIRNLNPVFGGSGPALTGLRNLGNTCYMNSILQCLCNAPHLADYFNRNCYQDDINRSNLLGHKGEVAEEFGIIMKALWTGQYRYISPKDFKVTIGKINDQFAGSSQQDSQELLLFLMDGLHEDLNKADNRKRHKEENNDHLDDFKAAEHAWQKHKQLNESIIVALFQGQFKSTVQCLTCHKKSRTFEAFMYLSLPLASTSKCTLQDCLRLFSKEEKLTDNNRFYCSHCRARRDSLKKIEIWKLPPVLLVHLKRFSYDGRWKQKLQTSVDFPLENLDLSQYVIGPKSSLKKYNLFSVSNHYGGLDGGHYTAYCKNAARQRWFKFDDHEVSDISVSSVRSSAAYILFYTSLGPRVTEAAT
Test: co-IP; PC12 cells under OGD treatment (also after infection with Ad-si-control, Ad-si-Nrdp1 or Ad-Nrdp1), lysed in RIPA buffer; supernatant incubated overnight at 4°C with 4 μg anti-USP8, Dynabeads protein A; immunoblot with anti-HIF-1α; control rabbit IgG

For “hypoxia inducible factor-1α (from UniProt O35800 1-825)”, the binding was “binds”.
